Assay results taken from PMC12077105, “PASTA kinase signaling regulates peptidoglycan synthesis in Enterococcus faecalis by direct inhibition of UDP-N-acetylglucosamine 1-carboxyvinyl transferase activity” (mBio, 2025).
No constants are given. Whether binding was seen depends on the method and setting. Some binding calls cover weakened binding; strength is not graded here. For part of these data: Tags and fused reporters may be left off the sequences shown.

Experiments:
[1] = biological target: T1, recombinant MurAB-His6 (E. faecalis) (UniProt Q836E5); assay: thermal shift assay; 2.5 uM MurAB with rising molar ratios of test protein, 10x SYPRO Orange, 50 mM Tris, 25 mM NaCl, pH 7.5; change of the MurAB melt temperature; both purified
T1 sequence: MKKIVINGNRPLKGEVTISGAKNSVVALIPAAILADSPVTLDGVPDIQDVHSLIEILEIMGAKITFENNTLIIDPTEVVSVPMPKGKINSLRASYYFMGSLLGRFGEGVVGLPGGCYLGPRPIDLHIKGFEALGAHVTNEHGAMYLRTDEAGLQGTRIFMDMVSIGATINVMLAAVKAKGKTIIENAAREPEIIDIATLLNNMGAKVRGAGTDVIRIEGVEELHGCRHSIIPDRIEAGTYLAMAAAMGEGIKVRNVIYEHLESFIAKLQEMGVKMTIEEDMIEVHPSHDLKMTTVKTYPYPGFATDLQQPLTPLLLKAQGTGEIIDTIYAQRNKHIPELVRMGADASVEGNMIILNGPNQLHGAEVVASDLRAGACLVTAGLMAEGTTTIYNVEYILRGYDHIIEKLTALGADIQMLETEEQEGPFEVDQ

[2] = biological target: IreB D50A fused to the T18 or T25 fragment of Bordetella pertussis adenylate cyclase (E. faecalis) (UniProt Q836B3); assay: two-hybrid; bacterial two-hybrid: fusions to the T18 and T25 domains of B. pertussis adenylate cyclase, co-transformed in E. coli DHM1, spotted on LB agar with X-gal and 0.1 mM IPTG, 5 days at room temperature
[3] = biological target: T2, MurAB fused to the T18 or T25 fragment of Bordetella pertussis adenylate cyclase (E. faecalis) (UniProt Q836E5); assay: as above
T2 sequence: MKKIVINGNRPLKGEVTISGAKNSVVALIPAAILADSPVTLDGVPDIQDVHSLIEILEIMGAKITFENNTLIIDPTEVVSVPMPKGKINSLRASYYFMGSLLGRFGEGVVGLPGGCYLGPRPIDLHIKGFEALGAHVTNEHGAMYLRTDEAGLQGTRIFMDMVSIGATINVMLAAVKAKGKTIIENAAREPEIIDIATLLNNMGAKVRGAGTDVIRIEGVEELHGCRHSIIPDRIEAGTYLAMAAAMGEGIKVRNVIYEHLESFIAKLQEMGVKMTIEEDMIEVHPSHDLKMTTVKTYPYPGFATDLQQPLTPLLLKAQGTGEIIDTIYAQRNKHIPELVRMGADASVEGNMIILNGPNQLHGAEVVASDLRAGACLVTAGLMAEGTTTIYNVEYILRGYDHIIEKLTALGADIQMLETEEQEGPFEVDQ

lysozyme (from UniProt P00698 19-147) (enzyme)
binding [1]: no binding

IreB D50A fused to the T18 or T25 fragment of Bordetella pertussis adenylate cyclase (from UniProt Q836B3 1-89)
binding [2]: binds

B1: purified recombinant wild-type IreB (expressed as His6-SUMO-IreB) (natural protein)
chain: MGFTDETVRFDFDDNRKKAISETLETVYRALEEKGYNPINQIVGYLLSGDPAYIPRYQDARNLIRRHERDEIMEELTKYYLANHGIDIK
notes: IreB of Enterococcus faecalis; wild-type allele amplified from OG1RF genomic DNA; IreB for the enzymatic assays was purified in MOPS buffer; also called unphosphorylated IreB; source: E. coli BL21(DE3), purified (Ni-charged resin)
binding [3]: binds
